Results deposited as PubChem BioAssay AID602196 (INSERM, 2012)
Aim: 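Knock-downs that protect lung cancer cells from cisplatin or sensitise them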. Cell system: human A549 lung cancer cells. Reagents: siRNA pair against human genes. Timing: 48 h transfection before cisplatin; time from cisplatin to read-out not stated. Challenge: cisplatin at a dose killing half of control-siRNA cells; exact dose and duration not given. Read-out: 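Shift in cisplatin death relative to control siRNA, from -50 (all cells die) to +50 (no cells die); siRNAs harmful on their own scored 0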. Reading the numbers: two-siRNA summed score (-2 to +2): higher = both siRNAs protect from cisplatin killing; -2 means both sensitise; mean protection from cisplatin (shift in death) and protection from cisplatin (shift in death), siRNA C and protection from cisplatin (shift in death), siRNA D: higher = protection from cisplatin killing. Active means: 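siRNAs harmful alone (LDH or WST-1) get 0; others get +1 for less and -1 for more cisplatin killing; genes are active when the two siRNAs give the same sign, summing to ±2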. Meaning of the calls: active = both siRNAs shift cisplatin killing the same way; inactive = no consistent shift, or siRNA harmful alone.
This is one part, drawn at random, of about 23,000 reagents tested. 455 of all reagents (2%) count as active. 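Active includes both protection and sensitisation; some change values fall well beyond the stated -50 to +50 range.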 Not stated in the record: the amount of reagent.

target	two-siRNA summed score (-2 to +2)	mean protection from cisplatin (shift in death) (%)	protection from cisplatin (shift in death), siRNA C (%)	protection from cisplatin (shift in death), siRNA D (%)	activity call
NPFF (neuropeptide FF-amide peptide precursor)	0	-2.8	-5	-0.6	inactive
KLRK1 (killer cell lectin like receptor K1)	-1	1.3	15.7	-13.1	inactive
SORCS2 (sortilin related VPS10 domain containing receptor 2)	-1	-9.7	-21	1.6	inactive
SCN1A (sodium voltage-gated channel alpha subunit 1)	1	12.8	19.9	5.7	inactive
LOC440322	0	14.9	2.3	27.6	inactive
PHACTR2 (phosphatase and actin regulator 2)	0	0.8	-2.4	4.1	inactive
LOC440026	1	13	0.1	25.8	inactive
POLA1 (DNA polymerase alpha 1, catalytic subunit)	0	-24.8	-21.4	-28.2	inactive
CLGN (calmegin)	0	4.3	6.6	2	inactive
ATP6V1C1 (ATPase H+ transporting V1 subunit C1)	2	12.9	7.5	18.3	active
IFT70A (intraflagellar transport 70A)	1	12.1	26.9	-2.7	inactive
SLC35D2	1	1.9	8.9	-5.1	inactive

Copied from above (2 entries):
target	two-siRNA summed score (-2 to +2)	mean protection from cisplatin (shift in death) (%)	protection from cisplatin (shift in death), siRNA C (%)	protection from cisplatin (shift in death), siRNA D (%)	activity call
KLRK1 (killer cell lectin like receptor K1)	-1	1.3	15.7	-13.1	inactive
SORCS2 (sortilin related VPS10 domain containing receptor 2)	-1	-9.7	-21	1.6	inactive

The listing continues.
target	two-siRNA summed score (-2 to +2)	mean protection from cisplatin (shift in death) (%)	protection from cisplatin (shift in death), siRNA C (%)	protection from cisplatin (shift in death), siRNA D (%)	activity call
NUB1 (negative regulator of ubiquitin like proteins 1)	0	-17.3	-1.2	-33.4	inactive
DGCR2 (DiGeorge syndrome critical region gene 2)	-1	-6.6	-29.5	16.4	inactive
NR2C1 (nuclear receptor subfamily 2 group C member 1)	0	4	5	3	inactive
DDX43 (DEAD-box helicase 43)	0	0.1	6.4	-6.3	inactive
LOC441727	1	17.3	18.1	16.4	inactive
UFSP2 (UFM1 specific peptidase 2)	0	0.7	4.3	-2.9	inactive
XKR5 (XK related 5)	0	4.4	1.9	6.9	inactive
PLOD3 (procollagen-lysine,2-oxoglutarate 5-dioxygenase 3)	-1	-13.9	3.9	-31.6	inactive
KIAA0459	0	7.7	8.1	7.4	inactive
CENPO (centromere protein O)	0	6.8	1.4	12.2	inactive
LY75 (lymphocyte antigen 75)	0	-1	5.5	-7.6	inactive
